Changes are numbered by the printed parent chain. Results are given in words; binding and its absence hold for the method and conditions named. Binding seen in cells or lysates may run through a third protein. Binding calls can cover weak binding; strength is not graded here. Sequences can lack the tags named with a protein.
Experiments:
[1] = biological target: T1, Flag-CNTNAP2 T1278I (human) (UniProt Q9UHC6); assay: co-IP
T1 sequence: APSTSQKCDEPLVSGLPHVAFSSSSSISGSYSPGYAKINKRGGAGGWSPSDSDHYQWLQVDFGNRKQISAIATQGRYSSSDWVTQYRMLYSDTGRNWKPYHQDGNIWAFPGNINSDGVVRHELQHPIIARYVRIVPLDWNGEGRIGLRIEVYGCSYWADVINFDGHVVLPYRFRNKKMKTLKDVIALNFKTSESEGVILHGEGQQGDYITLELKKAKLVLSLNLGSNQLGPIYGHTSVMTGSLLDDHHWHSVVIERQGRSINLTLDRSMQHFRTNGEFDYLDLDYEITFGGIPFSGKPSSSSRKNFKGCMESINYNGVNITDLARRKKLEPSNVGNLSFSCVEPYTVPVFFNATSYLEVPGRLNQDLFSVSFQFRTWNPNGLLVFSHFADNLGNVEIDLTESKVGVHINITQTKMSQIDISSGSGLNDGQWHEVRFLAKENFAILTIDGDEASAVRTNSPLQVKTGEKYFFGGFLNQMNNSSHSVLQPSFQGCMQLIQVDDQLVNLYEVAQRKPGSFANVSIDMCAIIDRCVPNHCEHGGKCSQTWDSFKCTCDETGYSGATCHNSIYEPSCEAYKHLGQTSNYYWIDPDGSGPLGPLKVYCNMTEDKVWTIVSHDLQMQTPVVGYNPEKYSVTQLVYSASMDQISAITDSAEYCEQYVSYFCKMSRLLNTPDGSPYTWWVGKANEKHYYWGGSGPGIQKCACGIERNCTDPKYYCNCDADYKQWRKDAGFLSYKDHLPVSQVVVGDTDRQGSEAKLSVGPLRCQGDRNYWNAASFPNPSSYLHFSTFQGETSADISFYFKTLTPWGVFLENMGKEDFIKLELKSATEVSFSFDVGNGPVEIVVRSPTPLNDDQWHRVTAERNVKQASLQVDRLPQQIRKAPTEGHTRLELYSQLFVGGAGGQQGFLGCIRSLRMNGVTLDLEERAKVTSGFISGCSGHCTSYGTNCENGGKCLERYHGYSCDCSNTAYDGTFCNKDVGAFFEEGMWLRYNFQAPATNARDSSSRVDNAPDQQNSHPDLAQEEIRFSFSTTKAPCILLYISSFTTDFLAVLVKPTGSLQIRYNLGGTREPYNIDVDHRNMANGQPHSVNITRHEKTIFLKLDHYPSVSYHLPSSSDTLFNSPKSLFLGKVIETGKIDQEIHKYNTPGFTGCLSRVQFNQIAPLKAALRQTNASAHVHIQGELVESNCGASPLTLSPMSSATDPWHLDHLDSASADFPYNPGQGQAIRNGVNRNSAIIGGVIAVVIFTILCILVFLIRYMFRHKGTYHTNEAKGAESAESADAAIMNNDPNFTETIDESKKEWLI

[2] = biological target: T2, Flag-CNTNAP2-WT (human) (UniProt Q9UHC6); assay: co-IP
T2 sequence: T1 sequence with I1251T

## HA-MMP9 (from UniProt P14780) (enzyme)
[1]
  binding: binds
[2]
  binding: binds
